Target: T1, Casein kinase I isoform alpha (Rattus norvegicus, UniProt P97633)
T1 sequence (P97633 whole entry): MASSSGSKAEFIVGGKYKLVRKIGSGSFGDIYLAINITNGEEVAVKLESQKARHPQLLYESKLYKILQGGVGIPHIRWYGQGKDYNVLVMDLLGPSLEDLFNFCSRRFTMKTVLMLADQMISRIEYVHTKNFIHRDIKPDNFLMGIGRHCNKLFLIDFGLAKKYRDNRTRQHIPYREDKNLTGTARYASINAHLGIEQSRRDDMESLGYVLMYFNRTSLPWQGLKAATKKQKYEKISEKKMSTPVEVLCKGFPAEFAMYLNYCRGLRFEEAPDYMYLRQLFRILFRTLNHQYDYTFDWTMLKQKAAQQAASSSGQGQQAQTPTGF
Details: pH 7.2; 30 °C

CC[C@H](CO)Nc1nc(NCc2ccccc2)c2ncn(C(C)C)c2n1 [2,6,9-Trisubstituted purine deriv. 28]
IC50: 100 µM

Reference: BindingDB's records for doi:10.1074/jbc.M500805200 (Chinese Academy of Sciences, 2005)
